Data on one substance can be found in PMC4530945.

The chains behind the UniProt entries cited, without tags or fusion partners. Residues count along the entry.
UniProt P60615, residues 22-95: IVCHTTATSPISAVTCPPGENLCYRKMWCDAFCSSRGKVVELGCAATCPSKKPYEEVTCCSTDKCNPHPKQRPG
UniProt P36544, residues 23-502: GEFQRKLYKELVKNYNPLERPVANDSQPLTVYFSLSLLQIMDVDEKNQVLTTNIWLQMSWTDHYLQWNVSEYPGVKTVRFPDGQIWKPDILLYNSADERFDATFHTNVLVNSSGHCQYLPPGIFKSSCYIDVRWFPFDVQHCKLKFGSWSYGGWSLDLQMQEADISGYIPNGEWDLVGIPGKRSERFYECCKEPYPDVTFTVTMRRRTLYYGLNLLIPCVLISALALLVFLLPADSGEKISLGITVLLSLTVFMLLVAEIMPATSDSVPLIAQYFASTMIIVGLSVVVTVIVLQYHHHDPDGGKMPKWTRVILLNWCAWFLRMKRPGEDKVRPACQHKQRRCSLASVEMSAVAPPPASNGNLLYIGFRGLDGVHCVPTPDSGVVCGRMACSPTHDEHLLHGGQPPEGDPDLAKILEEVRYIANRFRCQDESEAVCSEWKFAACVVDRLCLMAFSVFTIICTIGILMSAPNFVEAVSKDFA

The target in the assay is α-Bungarotoxin (Bungarus multicinctus) (UniProt P60615). Kind of assay: affinity purification with mass spectrometry; only the target purified.

Results are given in words; binding and its absence hold for the method and conditions named. Binding seen in cells or lysates may run through a third protein. These calls come from enrichment with a bait or labelling near it, and not all partners need be listed.

On to “α7-nicotinic acetylcholine receptor (from UniProt P36544 23-502)”, for which the binding result is “binds”.
